The target of this assay is T1, 9xMyc-NRP1 (NAP1-RELATED PROTEIN 1, N-terminally 9xMyc-tagged) (Arabidopsis) (UniProt Q9CA59).
T1 sequence: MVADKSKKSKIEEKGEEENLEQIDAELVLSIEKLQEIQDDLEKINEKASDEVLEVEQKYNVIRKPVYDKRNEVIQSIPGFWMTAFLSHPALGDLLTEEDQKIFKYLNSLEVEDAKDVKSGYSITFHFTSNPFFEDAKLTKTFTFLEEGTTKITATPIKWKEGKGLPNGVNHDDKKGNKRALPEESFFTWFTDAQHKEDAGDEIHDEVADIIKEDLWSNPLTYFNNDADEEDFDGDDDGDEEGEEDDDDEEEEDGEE
The assay can be described thus: co-IP; F1 lines expressing both NRP2-3xFlag and 9xMyc-NRP1; anti c-Myc magnetic beads; IP buffer, overnight at 4 °C; western blot.

No constants are given. Whether binding was seen depends on the method and setting. In cells and extracts the contact can be indirect. Some binding calls cover weakened binding; strength is not graded here. Tags and fused reporters may be left off the sequences shown.

B1: NRP2-3xFlag (NAP1-RELATED PROTEIN 2, C-terminally 3xFlag-tagged) (protein, UniProt Q8LC68 1-255)
chain: MVTDKSKKAKTEEENVEQIDAELVLSIEKLQEIQDDLEKINEKASDEVLEVEQKYNVIRKPVYDKRNEIIKTIPDFWLTAFLSHPALGELLTEEDQKIFKYLSSLDVEDAKDVKSGYSITFSFNPNPFFEDGKLTKTFTFLEEGTTKITATPIKWKEGKGLANGVNHEKNGNKRALPEESFFTWFSDAQHKEDVEDEMQDEVADIIKEDLWPNPLTYFNNDADEEDFDGDDDGDEEEKEGDSDEDDDEEDEVGEE
For the molecule B1, the binding result was “binds”.

The record behind these values is publication PMC7280298.
